This note sets out measurements from article PMC11033246.

In the series the test system is T1, TobR (Lrp/AsnC family regulator).
T1 sequence (looked up): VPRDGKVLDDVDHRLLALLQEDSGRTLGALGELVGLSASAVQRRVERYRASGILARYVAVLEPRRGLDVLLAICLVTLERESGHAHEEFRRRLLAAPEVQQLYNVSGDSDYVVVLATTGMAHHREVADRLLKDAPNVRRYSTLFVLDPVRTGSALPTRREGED
In words: EMSA. To be noted: Tris-HCl pH 7.5 (printed as 10 mL), 5 mM MgCl2, 60 mM KCl, 10 mM DTT, 50 mM EDTA, 10% glycerol; 100 ng DNA in 20 uL, 30 C, 20 min; 6% native PAGE in ice-cold 0.5x TBE; recombinant protein; residues 1-163; protein details: N-terminal His6 (pET28a); probe letters rebuilt from the primers and the genome. (In EMSA bound probe runs differently from free probe, usually more slowly.)

Tags and fusion partners may be left off the protein sequences shown.

As for “AGGCAGATCGCCAGCAGGACGTCGAGGCCGCGCCGGGGCTCCAGCACGGCCACGTACCGGGCGAGGATCCCGCTGGCGCGGTACCGCTCCACCCGGCGTTGGACCGCGCTCGCCGACAACCCCACCAGCTCGCCGAGGGCGCCGAGCGTGCGCCCGGAGTCCTCCTGCAACAGGGCGAGCAACCGGTGGTCGACGTCGTCGAGGACCTTCCCGTCACGAGGCACGCAACCATGTTGCGCGACGGCGGGCGAATTTTCAATCGCCGCCACCTGGGGAGCGGTTATCGTGTGCGTCGACGGGAGAGAAACCACCGGGTAACGCGGGGACGCGCTTTTTCGATGTCGACGGAACAGGGACCCGCGCCGTCGAAATCGCGACGAAAGCCGACGGGAATCGACCGCCGATACGTTCGCGCCGCACGGTAGGACCGACAGTGGAGGAAATCAGATGTCCTCGGCGCTCACGATTCCCCTGTACCACGTCCCTGAGGACGAGAGAATCCGGTTGTGGGAGCACT (double strand) [PtobO (tobR-tobO intergenic)]”, the binding result is recorded as “binds”.
